Some of the results follow.
Assays:
Experiment in all cases: log2 fold change, soluble protein after heating vs DMSO (PISA); higher = thermal stabilisation; K562 lysate, 10 uM; active = over 0.2 and 3.5 SD of the protein, either way, in both replicates (recomputed)
[1] = compound: NCC(=O)Nc1ccc(-n2nc(C(F)(F)F)cc2-c2ccc3c(ccc4ccccc43)c2)cc1
Outline: (§1)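 The values are log-two fold changes in thermal stability compared with solvent controls and come from duplicates. They were obtained by TMTpro 16plex LC-MS/MS, with channel sums equalised, on the supernatant after 21,000xg for 90 min. That supernatant came from crude K562 extract at 1 mg/mL protein treated with 10 μM compound for 30 min, heated for 3 min across 48°C-58°C, pooled and brought to 0.5% NP-40 at 4°C.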

Chains of the proteins cited; added tags and fusions are not shown. Lines headed by an entry give the natural chain unless they say otherwise; changes in a name come on top.
UniProt Q15800: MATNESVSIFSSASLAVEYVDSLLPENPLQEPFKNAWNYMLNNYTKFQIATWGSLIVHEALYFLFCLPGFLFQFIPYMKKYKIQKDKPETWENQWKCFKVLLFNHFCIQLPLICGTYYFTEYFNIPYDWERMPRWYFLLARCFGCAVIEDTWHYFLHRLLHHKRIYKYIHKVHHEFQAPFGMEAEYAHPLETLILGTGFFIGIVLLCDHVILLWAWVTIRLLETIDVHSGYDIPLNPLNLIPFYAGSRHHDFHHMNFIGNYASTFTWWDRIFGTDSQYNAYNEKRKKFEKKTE
UniProt Q93083: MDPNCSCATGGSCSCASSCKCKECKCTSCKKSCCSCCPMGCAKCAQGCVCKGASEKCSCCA
UniProt Q96DP5: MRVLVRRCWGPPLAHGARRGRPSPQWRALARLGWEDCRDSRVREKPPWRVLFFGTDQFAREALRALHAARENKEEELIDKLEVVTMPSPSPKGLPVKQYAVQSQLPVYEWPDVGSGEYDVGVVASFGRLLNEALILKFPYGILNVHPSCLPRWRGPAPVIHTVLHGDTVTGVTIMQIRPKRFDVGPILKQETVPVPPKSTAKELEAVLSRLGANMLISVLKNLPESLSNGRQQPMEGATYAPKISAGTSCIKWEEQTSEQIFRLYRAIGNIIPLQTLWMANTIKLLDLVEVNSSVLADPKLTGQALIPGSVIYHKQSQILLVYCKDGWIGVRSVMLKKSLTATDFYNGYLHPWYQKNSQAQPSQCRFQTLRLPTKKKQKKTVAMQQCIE
UniProt Q13496: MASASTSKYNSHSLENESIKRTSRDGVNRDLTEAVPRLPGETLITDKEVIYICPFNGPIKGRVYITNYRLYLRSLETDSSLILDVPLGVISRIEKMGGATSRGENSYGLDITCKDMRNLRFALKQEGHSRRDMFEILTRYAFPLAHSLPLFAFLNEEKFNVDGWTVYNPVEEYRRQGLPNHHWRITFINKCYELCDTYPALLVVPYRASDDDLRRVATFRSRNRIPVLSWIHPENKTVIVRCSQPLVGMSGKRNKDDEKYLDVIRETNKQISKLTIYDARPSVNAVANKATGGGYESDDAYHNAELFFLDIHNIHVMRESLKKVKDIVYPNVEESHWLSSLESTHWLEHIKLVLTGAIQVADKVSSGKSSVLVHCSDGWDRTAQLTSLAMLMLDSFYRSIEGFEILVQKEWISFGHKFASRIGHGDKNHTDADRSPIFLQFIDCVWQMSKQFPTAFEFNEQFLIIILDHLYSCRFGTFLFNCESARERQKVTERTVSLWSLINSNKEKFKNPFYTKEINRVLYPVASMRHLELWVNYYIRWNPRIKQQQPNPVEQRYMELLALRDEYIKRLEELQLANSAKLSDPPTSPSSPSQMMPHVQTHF
UniProt O43312: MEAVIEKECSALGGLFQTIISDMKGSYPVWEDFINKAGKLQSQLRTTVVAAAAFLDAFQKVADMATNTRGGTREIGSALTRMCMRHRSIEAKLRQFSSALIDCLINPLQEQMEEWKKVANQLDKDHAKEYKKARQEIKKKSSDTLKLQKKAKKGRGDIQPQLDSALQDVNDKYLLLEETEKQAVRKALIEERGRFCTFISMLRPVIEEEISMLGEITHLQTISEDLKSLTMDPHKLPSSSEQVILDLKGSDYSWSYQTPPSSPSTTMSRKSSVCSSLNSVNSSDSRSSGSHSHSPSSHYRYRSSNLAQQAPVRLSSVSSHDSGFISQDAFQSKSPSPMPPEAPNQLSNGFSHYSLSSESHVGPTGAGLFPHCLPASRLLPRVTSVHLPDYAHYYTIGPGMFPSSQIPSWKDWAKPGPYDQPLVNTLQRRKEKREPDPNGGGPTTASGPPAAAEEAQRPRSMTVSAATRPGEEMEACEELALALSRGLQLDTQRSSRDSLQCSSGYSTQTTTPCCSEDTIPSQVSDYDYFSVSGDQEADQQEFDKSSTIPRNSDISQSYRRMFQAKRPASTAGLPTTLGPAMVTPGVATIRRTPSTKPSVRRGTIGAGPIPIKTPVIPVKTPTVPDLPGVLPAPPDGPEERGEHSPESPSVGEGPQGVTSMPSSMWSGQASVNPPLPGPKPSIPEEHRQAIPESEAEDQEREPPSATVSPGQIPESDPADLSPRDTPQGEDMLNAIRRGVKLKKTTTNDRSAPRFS
UniProt Q9NXD2: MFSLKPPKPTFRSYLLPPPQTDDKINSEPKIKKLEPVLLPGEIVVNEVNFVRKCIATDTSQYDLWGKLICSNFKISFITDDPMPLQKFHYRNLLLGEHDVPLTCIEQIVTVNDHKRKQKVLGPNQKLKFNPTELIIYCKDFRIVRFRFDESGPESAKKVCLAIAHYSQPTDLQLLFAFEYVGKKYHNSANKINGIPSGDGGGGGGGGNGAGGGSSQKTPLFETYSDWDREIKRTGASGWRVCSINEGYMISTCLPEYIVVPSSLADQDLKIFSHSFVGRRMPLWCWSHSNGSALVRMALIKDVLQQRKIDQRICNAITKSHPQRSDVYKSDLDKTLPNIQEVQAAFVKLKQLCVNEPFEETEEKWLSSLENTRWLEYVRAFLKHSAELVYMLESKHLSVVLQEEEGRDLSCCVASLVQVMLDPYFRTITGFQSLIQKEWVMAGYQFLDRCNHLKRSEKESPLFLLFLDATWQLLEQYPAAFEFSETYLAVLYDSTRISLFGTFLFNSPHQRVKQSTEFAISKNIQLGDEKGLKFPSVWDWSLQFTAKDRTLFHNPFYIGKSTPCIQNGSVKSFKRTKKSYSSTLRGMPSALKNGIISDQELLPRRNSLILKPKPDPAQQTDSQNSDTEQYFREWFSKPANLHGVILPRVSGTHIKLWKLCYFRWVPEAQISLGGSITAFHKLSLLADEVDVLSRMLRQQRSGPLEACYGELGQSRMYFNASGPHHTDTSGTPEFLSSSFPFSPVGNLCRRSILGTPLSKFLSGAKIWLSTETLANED
UniProt P26038, whole entry, looked up: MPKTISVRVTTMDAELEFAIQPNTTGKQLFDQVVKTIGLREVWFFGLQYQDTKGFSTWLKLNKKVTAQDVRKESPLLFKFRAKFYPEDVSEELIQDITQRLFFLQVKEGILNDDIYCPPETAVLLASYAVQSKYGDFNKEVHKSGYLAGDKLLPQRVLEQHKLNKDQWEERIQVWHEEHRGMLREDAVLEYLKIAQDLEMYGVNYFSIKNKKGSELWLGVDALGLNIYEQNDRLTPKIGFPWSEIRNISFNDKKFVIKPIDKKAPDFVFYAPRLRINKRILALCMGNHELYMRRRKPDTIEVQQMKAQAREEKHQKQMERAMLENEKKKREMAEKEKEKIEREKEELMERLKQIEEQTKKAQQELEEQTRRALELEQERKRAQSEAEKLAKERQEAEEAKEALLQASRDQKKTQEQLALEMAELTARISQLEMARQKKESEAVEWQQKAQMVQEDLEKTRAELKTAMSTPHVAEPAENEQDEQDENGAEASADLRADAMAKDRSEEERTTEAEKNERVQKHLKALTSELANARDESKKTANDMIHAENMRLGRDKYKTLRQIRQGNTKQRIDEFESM

vorinostat = compound: O=C(CCCCCCC(=O)Nc1ccccc1)NO [vorinostat]
Outline: as §1

silmitasertib = compound: O=C(O)c1ccc2c(c1)nc(Nc1cccc(Cl)c1)c1ccncc12 [silmitasertib]
Outline: as §1

[2] = compound: O=C1NC(=O)C(c2cnc3ccccn23)=C1c1cn2c3c(cc(F)cc13)CN(C(=O)N1CCCCC1)CC2
Outline: as §1

entospletinib = compound: c1cn2cc(-c3ccc4cn[nH]c4c3)nc(Nc3ccc(N4CCOCC4)cc3)c2n1 [entospletinib]
Outline: as §1

Measured: log2 fold change

MSMO1 (UniProt Q15800)
inactive: [1] -0.04 | vorinostat 0.024 | silmitasertib -0.025 | [2] -0.005 | entospletinib -0.042

MRPS21 (UniProt P82921)
inactive: [1] -0.012 | [2] -0.114 | entospletinib 0.02

MRPL55 isoform 2 (UniProt Q7Z7F7)
inactive: [1] 0.027 | vorinostat 0.036 | silmitasertib 0.081 | [2] 0.015 | entospletinib -0.021

MRPL44 (UniProt Q9H9J2)
inactive: [1] -0.017 | vorinostat -0.017 | silmitasertib 0.004 | [2] 0.053 | entospletinib 0.019

MT1L (UniProt Q93083)
inactive: [2] 0.107

MTFMT (UniProt Q96DP5)
inactive: vorinostat -0.199 | silmitasertib 0.138 | [2] 0.103

MTM1 (UniProt Q13496)
inactive: [1] 0.048 | vorinostat 0.029 | silmitasertib -0.028 | [2] -0.019 | entospletinib 0.016

MTURN (UniProt Q8N3F0)
inactive: [2] 0.086 | entospletinib -0.037

MTSS1 isoform 5 (UniProt O43312)
inactive: [2] -0.099

MTMR10 (UniProt Q9NXD2)
inactive: vorinostat -0.187 | silmitasertib 0.03 | [2] 0.077

MSN (UniProt P26038)
inactive: [1] 0.005 | vorinostat 0.125 | silmitasertib -0.004 | [2] -0.004 | entospletinib 0.009

MRPL42 (UniProt Q9Y6G3)
inactive: [1] 0.057 | vorinostat 0.043 | silmitasertib -0.221 | [2] -0.024 | entospletinib 0.207
